Results are given in words; binding and its absence hold for the method and conditions named. In cells and extracts the contact can be indirect. A result given as binding can be weak or reduced; the word gives no strength. Sequences can lack the tags named with a protein.
Target: T1, HisMax-FKBP51 Y54F (UniProt Q13451)
T1 sequence: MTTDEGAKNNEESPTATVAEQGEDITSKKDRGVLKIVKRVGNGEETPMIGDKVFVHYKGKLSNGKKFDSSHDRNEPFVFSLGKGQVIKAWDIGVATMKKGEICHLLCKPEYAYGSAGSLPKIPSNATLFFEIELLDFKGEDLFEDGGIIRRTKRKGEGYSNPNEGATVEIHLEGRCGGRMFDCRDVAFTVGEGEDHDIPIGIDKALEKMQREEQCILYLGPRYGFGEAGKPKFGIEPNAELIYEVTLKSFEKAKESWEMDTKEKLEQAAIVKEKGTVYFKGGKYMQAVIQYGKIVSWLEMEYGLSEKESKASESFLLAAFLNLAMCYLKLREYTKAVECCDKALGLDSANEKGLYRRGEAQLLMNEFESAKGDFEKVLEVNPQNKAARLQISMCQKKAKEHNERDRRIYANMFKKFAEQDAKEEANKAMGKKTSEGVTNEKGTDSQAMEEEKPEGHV
Experiment: co-IP; FKBP51(Y54F) or WT FKBP51 transfected in 293FT cells; IP by anti-Xpress, western blot

- binding: binds
Substance: PHLPP (in 293FT cells, Fig 4G) (enzyme)

From PMC8202955, “The nonreceptor tyrosine kinase SRMS inhibits autophagy and promotes tumor growth by phosphorylating the scaffolding protein FKBP51” (PLoS Biology, 2021)
